Laboratory results as given in PubChem BioAssay AID1487 (National Center for Advancing Translational Sciences (NCATS), 2009).
Values joined by “and” are separate entries in the source; they are usually repeats but may differ in a detail not shown here. Equal values may be shown once. The campaign covered roughly 200,000 compounds. About 25 (0.01%) were called active. This list was built around the results that the source calls inconclusive (neither active nor inactive); the mix of calls is not that of the screen. The call rests on the fitted dose curve; in most records, active means well fitted inhibition curve with a large enough effect in the signal ratio, with a control signal flat (not every such curve was filed as active); inconclusive means small, poorly fitted or top-dose-only effect, or effect the other way, or a change in a side signal; inactive means flat fitted curve, though single readings scatter; the % refers to the signal ratio. A potency beside an inconclusive call is a rough fit, not a confirmed value.

Experiment: qHTS Assay for Modulators of Lamin A Splicing
Details: HeLa LMNA splicing GFP/RFP minigene ratio, 48 h; ratio change, negative = inhibition: at 46.1 µM (top of the series) unless noted
Outline: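 S3 HeLa cells stably expressing lamin A-EGFP splicing minigene plus DsRed2, 600 cells/well, 48 h compound exposure at 37C. Laser-scanning cytometry; analysed as GFP (500-530 nm)/RFP (575-640 nm) total intensity ratio; 0.5% DMSO vehicle.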
On the % scale 0 is the no-effect control and ±100 the full control effect; potency means the concentration at half of the fitted maximal effect.

Row | Structure (SMILES) | ratio change, negative = inhibition | Potency
1 | CN(C(=O)COC(=O)c1ccc2[nH]c3c(c2c1)CCCC3)C1CCS(=O)(=O)C1 (configuration not stated) | inconclusive: -24.2% [at 46 µM] | –
2 | Cc1ccc(Oc2cc(NC(=O)CCCn3nc([N+](=O)[O-])cc3C)cc([N+](=O)[O-])c2)cc1 | – | inconclusive: 35.5 µM [fluorescent, single point]
3 | Cc1ccc(Nc2c([N+](=O)[O-])c(=O)n(C)c3ccccc23)cc1 | inactive | –
4 | CN1CCN(c2nc3c(c(=O)[nH]c(=O)n3C)n2CCCSc2ncccn2)CC1 | inactive | –
5 | CCOC(=O)c1sc(NC(=O)CCN2CCN(CC)CC2)c(C(=O)OCC)c1C | – | inconclusive: 25.1 µM [inhibitor, single point]
6 | O=C(Nc1ccccc1N1CCN(C(=O)c2ccccc2)CC1)c1cc2ccccc2o1 | inactive | –
7 | Nc1c2c(nc3ccccc13)CCCC2 | inconclusive: -12.1% and inconclusive: -31.2% and inconclusive: -45.7% | –
8 | CCCCn1nnc(N(C(=O)c2cccs2)C(=O)c2cccs2)n1 | inconclusive: 48.5% [at 46 µM] | –
9 | CC(C)c1nnc(NC(=O)C2CCN(c3cnccn3)CC2)s1 | inactive | –
10 | O=c1cc(-c2ccccc2)oc2cc(O)cc(O)c12 | inconclusive: 36.6% | –
11 | CCc1nc2ccccc2c(C(=O)OC2CCCCC2=O)c1C (configuration not stated) | inconclusive: -35% [at 46 µM] | –
12 | N#Cc1c2n(c(=S)n(-c3ccccn3)c1=O)CCCCC2 | inactive | –
13 | CCn1c2ccccc2c2cc(C3C(C#N)=C(N)Oc4n[nH]c(COC)c43)ccc21 (configuration not stated) | inconclusive: 50.7% | –
14 | Cc1sc2nc3ccc(NCc4ccco4)nn3c(=O)c2c1C | – | inconclusive: 22.4 µM [activator, partial curve]
15 | Cc1ccc2c(c1)[nH]c1c(N3CCN(Cc4ccccc4)CC3)ncnc12 | inconclusive: -17.4% | –
16 | COCCN(C(=O)Cc1cccs1)C(C(=O)NCc1ccc(OC)cc1)c1ccccc1 (configuration not stated) | inactive | –
17 | Cc1ccc2c(COC(=O)c3c(C)noc3C)cc(=O)oc2c1 | inactive | –
18 | CC(=O)c1ccc(NC(=O)c2noc(C(C)C)c2[N+](=O)[O-])cc1 | inconclusive: 32.7% [at 46 µM] | –
19 | Cc1ccc(-n2c(O)c(/C=N/n3cnnc3)c3ccccc3c2=O)cc1 | – | inconclusive: 35.5 µM [cytotoxic, partial curve]
20 | CC1CCN(c2c(NCc3ccc(C(=O)N4CCc5ccccc54)cc3)c(=O)c2=O)CC1 | inactive | –
21 | O=S1(=O)CCC(NC(=S)N2CCOCC2)C1 (configuration not stated) | inactive | –
22 | Cc1c(CCO)c(=O)[nH]n1C(=O)c1c(F)cccc1F | – | inconclusive: 20 µM [falling, partial curve, poor fit]

Single records, as listed above:
CCOC(=O)c1sc(NC(=O)CCN2CCN(CC)CC2)c(C(=O)OCC)c1C in the list: Potency: inconclusive: 25.1 µM [inhibitor, single point]
COCCN(C(=O)Cc1cccs1)C(C(=O)NCc1ccc(OC)cc1)c1ccccc1 (configuration not stated) in the list: ratio change, negative = inhibition: inactive
